Reference: patent US20030232057A1, “Method and composition for inducing tolerance to an antigenic material” (priority 2000, published 2003)
At least one structure is not confirmed: it was looked up by name or label, or the drawing left a doubt.

Columns and labels:
Type in all cases: in vivo, Balb/c mice
[1] = tested on: BLG-stimulated lymphocytes; test: Prostaglandin E2 measurement (EIA) in culture media of lymphocytes from treated mice; details: mice fed whey proteins 3 mg/g on day 0; drug daily day -3 to day 4; 5 days after tolerization; whey vs non-tolerized control mice, drugs vs whey proteins fed mice
Method: (§1) To start the experiment the mice were forced fed and/or injected i.p. with butyrate (which promotes COX-2 activity), ibuprofen (which inhibits COX activity) or saline (control) daily from day −3 to day 4. On day 0, the mice were fed by gastric feeding whey proteins (3 mg/g of body weight) or same volume of saline water. Gavage products were dissolved in 0.3 ml of saline water. At day 4 of each experiment, all mice were immunized by intraperitoneal injection of 0.08 mg of BLG as well as 0.08 mg of OVA in 0.04 ml sterile saline mixed with 0.16 ml 2% Al(OH)3 (Superfos Biosecotr A/S, Denmark). At day 4 or at day 26, blood samples were obtained from cardiac aortic punction under 3% Isoflurane anaesthesia (Abbott SA). Immediately after death, obtained by cervical dislocation, spleens were removed and pooled according to group of treatment in 20 ml chilled RPMI supplemented with 5% FCS. […] (^3H)Tdr (Amersham, Zurich) was added for the final 6 hours of culture and the plates were harvested and analyzed by scintillation counting (TopCount, Canberra Packard, Zurich). […] Stimulation indices were calculated as the ratio of blank-subtracted test and control values at 2.5 mg BLG/mL and 50 μg PHA/mL. PGE2 levels in the culture media, from lymphocytes cultured for 6 hrs or 12 hrs, were determined by using an enzyme immunoassay (EIA) kit (Cayman Chemical, ). […]

[2] = tested on: BLG-stimulated lymphocytes; test: Cytokine ELISA (IFN-γ) in supernatants of BLG-stimulated spleen cells from treated mice; details: mice fed whey proteins 3 mg/g on day 0; drug daily day -3 to day 4; 5 days after tolerization; whey vs non-tolerized control mice, drugs vs whey proteins fed mice
Method: as §1, with “PHA/mL. […] IFN-γ” for “PHA/mL. PGE2”, “levels were measured using cytokine specific ELISA kit Endogen; which were performed according to” for “levels in”, “the manufacturers' instructions.” for “the culture media, from lymphocytes cultured for 6 hrs or 12 hrs, were determined by using an enzyme immunoassay (EIA) kit (Cayman Chemical, ).”

[3] = tested on: spleen cells; test: Specific proliferation assay ((3H)Tdr incorporation) of spleen cells from treated mice; details: 4 days post-tolerization; index below 0.5 indicates tolerized mice; drugs compared with whey proteins fed mice
Method: as §1, with “FCS. Spleen cell solutions were homogenized through a cellular sieve (Falcon) and purified from red cells using Histopaque density centrifugation (Sigma) at 390×g for 20 min.” for “FCS.”, “PHA/mL.” for “PHA/mL. PGE2 levels in the culture media, from lymphocytes cultured for 6 hrs or 12 hrs, were determined by using an enzyme immunoassay (EIA) kit (Cayman Chemical, ).”

In the case of CCCC(=O)O [butyrate], the “PGE2 production by BLG-stimulated lymphocytes in culture” value [1] is reported as “further increased”, the “INF-γ production by BLG-stimulated lymphocytes in culture” value [2] is reported as “further increased” and the “proliferative response index (stimulation index)” value [3] is reported as “further decreased”.
